The text below walks through data of article PMC5004861.

Protein sequences, listed by entry. Tags and fused reporters are not part of them.
UniProt P11442: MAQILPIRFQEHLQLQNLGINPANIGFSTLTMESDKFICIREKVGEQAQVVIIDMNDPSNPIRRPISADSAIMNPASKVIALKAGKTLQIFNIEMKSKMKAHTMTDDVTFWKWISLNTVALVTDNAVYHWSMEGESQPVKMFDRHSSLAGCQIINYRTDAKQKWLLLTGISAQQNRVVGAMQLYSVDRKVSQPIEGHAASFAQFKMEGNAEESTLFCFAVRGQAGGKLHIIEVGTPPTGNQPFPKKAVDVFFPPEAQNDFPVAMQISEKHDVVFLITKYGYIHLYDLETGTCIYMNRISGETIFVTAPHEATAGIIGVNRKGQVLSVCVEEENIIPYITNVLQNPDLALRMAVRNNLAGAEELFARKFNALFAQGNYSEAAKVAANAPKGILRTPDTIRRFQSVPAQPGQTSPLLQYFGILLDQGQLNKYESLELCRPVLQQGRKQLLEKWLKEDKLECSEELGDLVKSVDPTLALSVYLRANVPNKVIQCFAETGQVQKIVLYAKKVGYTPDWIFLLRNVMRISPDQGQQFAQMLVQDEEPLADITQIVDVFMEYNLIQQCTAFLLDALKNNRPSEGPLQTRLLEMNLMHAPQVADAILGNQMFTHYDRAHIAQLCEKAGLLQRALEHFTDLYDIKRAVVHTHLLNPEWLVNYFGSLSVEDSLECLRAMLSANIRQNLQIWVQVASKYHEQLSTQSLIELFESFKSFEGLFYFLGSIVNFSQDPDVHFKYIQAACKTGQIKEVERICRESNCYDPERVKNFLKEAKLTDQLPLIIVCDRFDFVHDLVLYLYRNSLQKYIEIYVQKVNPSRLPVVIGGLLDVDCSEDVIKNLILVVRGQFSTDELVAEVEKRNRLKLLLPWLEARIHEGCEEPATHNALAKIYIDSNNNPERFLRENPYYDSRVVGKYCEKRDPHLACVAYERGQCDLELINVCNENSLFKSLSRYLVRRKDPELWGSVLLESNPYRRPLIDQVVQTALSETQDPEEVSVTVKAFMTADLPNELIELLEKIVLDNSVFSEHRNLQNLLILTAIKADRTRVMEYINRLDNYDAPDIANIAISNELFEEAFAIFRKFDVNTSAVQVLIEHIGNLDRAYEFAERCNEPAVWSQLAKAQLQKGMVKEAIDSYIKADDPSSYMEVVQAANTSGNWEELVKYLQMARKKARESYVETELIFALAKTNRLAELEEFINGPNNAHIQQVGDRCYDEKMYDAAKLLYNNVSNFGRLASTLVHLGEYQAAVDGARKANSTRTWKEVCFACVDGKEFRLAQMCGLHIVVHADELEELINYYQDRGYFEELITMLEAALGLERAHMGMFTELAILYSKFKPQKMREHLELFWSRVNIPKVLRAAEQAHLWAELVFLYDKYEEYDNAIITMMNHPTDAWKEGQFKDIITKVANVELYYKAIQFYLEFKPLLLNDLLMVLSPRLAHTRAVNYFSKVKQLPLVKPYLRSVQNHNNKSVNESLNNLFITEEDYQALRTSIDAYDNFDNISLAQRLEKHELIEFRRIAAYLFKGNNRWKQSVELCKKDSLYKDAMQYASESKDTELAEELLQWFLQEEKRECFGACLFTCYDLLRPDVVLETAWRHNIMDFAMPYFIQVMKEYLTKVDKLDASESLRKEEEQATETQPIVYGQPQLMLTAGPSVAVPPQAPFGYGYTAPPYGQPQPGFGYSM

Common to all, as to experiment: pull-down; GST fusion on glutathione-Sepharose beads (typically 5 μg bait) with rat brain synaptosome lysate (2-2.5 mg protein), 10 min or 1 h at 4°C; washes in 20 mM Tris pH 7.4, 1 mM EGTA, 1 mM EDTA; Western blot with anti-clathrin heavy chain, adjusted to the bait seen by Coomassie; only the target …
(In general: In western blotting, separated proteins are transferred to a membrane and probed.)

In assay [1] the target is T1, GST-CALM Site 1 mutant (human CALM isoform 1) (human) (UniProt Q13492).
T1 sequence: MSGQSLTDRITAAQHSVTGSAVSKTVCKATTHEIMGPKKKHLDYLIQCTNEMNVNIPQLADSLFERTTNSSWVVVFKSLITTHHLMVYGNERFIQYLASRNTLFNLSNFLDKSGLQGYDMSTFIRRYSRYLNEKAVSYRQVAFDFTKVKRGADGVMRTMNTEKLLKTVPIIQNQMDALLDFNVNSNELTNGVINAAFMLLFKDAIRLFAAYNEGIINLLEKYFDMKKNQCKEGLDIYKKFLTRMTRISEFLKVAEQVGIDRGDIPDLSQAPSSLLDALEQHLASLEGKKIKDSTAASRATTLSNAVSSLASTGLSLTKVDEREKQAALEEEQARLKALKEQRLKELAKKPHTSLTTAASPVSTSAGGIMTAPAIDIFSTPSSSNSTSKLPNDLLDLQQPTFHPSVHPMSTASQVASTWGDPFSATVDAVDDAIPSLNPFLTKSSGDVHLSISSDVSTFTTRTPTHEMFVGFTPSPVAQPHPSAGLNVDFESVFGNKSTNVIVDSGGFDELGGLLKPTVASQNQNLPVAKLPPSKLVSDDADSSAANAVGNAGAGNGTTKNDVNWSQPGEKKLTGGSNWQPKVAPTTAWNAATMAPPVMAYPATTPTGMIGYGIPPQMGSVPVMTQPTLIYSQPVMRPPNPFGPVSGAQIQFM

The target in assay [2] is T2, GST-CALM Site 1&2 double mutant (human CALM isoform 1) (human) (UniProt Q13492).
T2 sequence: T1 sequence with I649A, F651A, M652A

Assay [3] concerns the target T3, GST-CALM Site 2 mutant (human CALM isoform 1) (human) (UniProt Q13492).
T3 sequence: T1 sequence with A540L, A544L, A547L, A551L, A553I, I649A, F651A, M652A

The target in assay [4] is T4, GST-CALM WT (human CALM isoform 1) (human) (UniProt Q13492).
T4 sequence: T1 sequence with A540L, A544L, A547L, A551L, A553I

Residue numbers refer to the chain shown, from its start. No constants are given. Whether binding was seen depends on the method and setting. In cells and extracts the contact can be indirect. Some binding calls cover weakened binding; strength is not graded here. Sequences can lack the tags named with a protein.

For “clathrin from rat brain synaptosome lysate, detected as clathrin heavy chain (from UniProt P11442 1-1675)”, the binding entry in assay [1] is “binds”; in assay [2], “no binding”; in assay [3] it was “binds”; in assay [4], “binds”.
